In this data set the test system is Aurora-A 122-403 C290A C393A (D274N). Briefly: ITC, CEP192 constructs with unphosphorylated Aurora-A kinase domain. The class given is binding, human. The conditions noted are these: for molar ratio: ITC fit, Aurora-A CAKD / M3KD.

B1: CEP192 468-533 F490D/F508D/I518D: CEP192 468-533 variant replacing hydrophobic residues recognising two regions of N-lobe (protein)
chain: PQSVVYQNEEGRWVTDLAYYTSDNSKQNLNVSLSDEMNEDDRSGSEAFDLDAQDEEEFNKEHQFIQ
modifications: left off: His6, N-terminal, cleaved | SUMO, N-terminal, cleaved
notes: CEP192 468-533 variant replacing hydrophobic residues recognising two regions of N-lobe
Consider B1, for which the “interaction with Aurora-A CAKD (ITC)” value (ITC, 25 °C, in words) was “completely knocked out the interaction with Aurora-A^CAKD”.

B2: CEP192 468-533 Y487A/F490A: CEP192 468-533 mutant, two F-pocket residues replaced with alanine (protein)
chain: PQSVVYQNEEGRWVTDLAYATSANSKQNLNVSLSDEMNEDFRSGSEAFDLIAQDEEEFNKEHQFIQ
modifications: left off: His6, N-terminal, cleaved | SUMO, N-terminal, cleaved
notes: CEP192 468-533 mutant, two F-pocket residues replaced with alanine
For B2, the molar ratio is on record as 0.84.

B3: CEP192 468-533: recombinant human CEP192 aa 468–533, minimal binding region (protein)
chain: PQSVVYQNEEGRWVTDLAYYTSFNSKQNLNVSLSDEMNEDFRSGSEAFDLIAQDEEEFNKEHQFIQ
modifications: left off: His6, N-terminal, cleaved | SUMO, N-terminal, cleaved
Take B3: the molar ratio stood at 0.85.

These data come from publication PMC11574021, “CEP192 localises mitotic Aurora-A activity by priming its interaction with TPX2” (The EMBO Journal, 2024).
